Assay results reported in patent publication US20090240038A1.
Residue numbers refer to the chain shown, from its start. Results are given in words; binding and its absence hold for the method and conditions named. Some results given as binding are weak or reduced against the parent protein; the word gives no strength.

T1: EGFrVIII N-terminal sequence on SPOTs peptide array (nine overlapping 12-mers, residues 1-20) (human)
T1 sequence (peptide, synthesised as spots on polypropylene membrane): LEEKKGNYVVTDHGSCVRA

B1: antibody 211 (antibody, human IgG1, V domains shown)
VH: QVQLVESGGGVVQPGRSLRLSCVASGFTLSSYGMHWVRQAPGKGLEWVAVTSYDGSKKDYADSAKGRFTISRDNSKNTLYLQMNSLRAEDTAVYYCVSEGYCSSSSCYKYYYYGMDVWGQGTTVTVSS
VL: DIVMTQSPLSLPVTPGEPASISCRSSQSLLYRNGNNYLDWYLQRPGQSPQLLIYLGSNRASGVPDRFSGSGSGTDFTLKISRVEAEDVGVYYCMQALQTPRTFGQGTKVEIK
B2: antibody 095 (antibody, human IgG1, V domains shown)
VH: QVQLQESGPFLVKPSQTLSLTCTVSGGSISSGGYYWSWIRQHPGKGLEWIGFIYYRGNTYYNPSLKSRVTISVDTSKNQFSLKLSSVTAADTAVYYCARDGYCSRTGCYGGWFDPWGQGTLVTVSP
VL: DIVMTQTPLSSPVTLGQPASISCRSSQSLIHTDGNIYLSWLQQRPGQPPRLLIYKISNRFSGVPDRFSGSGAGTDFTLKISRVEAEDVGVYYCMQGTQFPITFGQGTRLEIK
B3: antibody 250 (antibody, human IgG1, V domains shown)
VH: EGQLLESGGGWVQPGESLRLSCAASGFTFSSYAMSWVRQAPGKGLEWVSAISGSGGSTNYADSVKGRFTISRDNSKNTLYLQVNSLRVEDTAVYYCAGSSGWSEYWGQGTLVTVSS
VL: DIQMTQSPSSLSASVGDSVTITCRTSQGIRKNLGWYQQKPGKAPKRLIYAASSLQSGVPSRFSGSGSGTEFTLTISRLQPEDFATYYCLQHHSYPLTFGGGTRVEIR
B4: antibody 139 (antibody, human IgG1, V domains shown)
VH: B3 VH with G2V, L4V, W11L, E16G, V83M, V88A
VL: DIQMTQSPSSLSASVGDRVTITCRASQGIRNNLAWYQQKPGKAPKRLIYAASNLQSGVPSRFTGSGSGTEFTLIVSSLQPEDFATYYCLQHHSYPLTSGGGTKVEIK

target: EGFRvIII-Rabbit Fc fusion protein (human; rabbit) (UniProt P00533); experiment: Western blot of purified EGFRvIII

| binding | Binder |
| --- | --- |
| binds | B1 |

target: EGFRvIII-Rabbit Fc fusion protein (human; rabbit) (UniProt P00533); experiment: Western blot, EGFRvIII rabbit Fc fusion protein, native

| binding | Binder |
| --- | --- |
| binds | B1 |
| binds | B2 |
| binds | B3 |

target: EGFRvIII-Rabbit Fc fusion protein (human; rabbit) (UniProt P00533); experiment: Western blot, EGFRvIII rabbit Fc fusion protein, reduced

| binding | Binder |
| --- | --- |
| binds | B1 |
| binds | B2 |
| binds | B4 |
| binds | B3 |

target: T1, EGFrVIII N-terminal sequence on SPOTs peptide array (nine overlapping 12-mers, residues 1-20) (human); experiment: SPOTs peptide array, 1 µg/ml antibody, HRP secondary, ECL

| binding | Binder |
| --- | --- |
| binds | B1 |
| binds | B2 |
| binds | B4 |
| binds | B3 |

target: EGFRvIII-Rabbit Fc fusion protein (human; rabbit) (UniProt P00533); experiment: Western blots and epitope mapping; member inferred (nine mapped mAbs without H10 and 211)

| binding | Binder |
| --- | --- |
| binds | B2 |
| binds | B4 |
| binds | B3 |
